Experimental data from PMC4322365, “A Ligand-observed Mass Spectrometry Approach Integrated into the Fragment Based Lead Discovery Pipeline” (Scientific Reports, 2015).

Experiment: Recovery rate of fragment after ultrafiltration (nonspecific binding to filter membrane)
Conditions: MS intensity of the fragment before and after ultrafiltration

N#CCc1ccc(O)cc1 [Fragment 114]
Recovery rate (%): 76.2%

N#CC(c1ccccc1)N1CCOCC1 (centres unmarked) [Fragment 328]
Recovery rate (%): 57.4%
